Assay results from US7754722B2, “Piperazine derivatives and methods of use” (Merck Serono SA, priority 2002, dated 2010).

Amino acid sequences for entries named in this document (tags omitted). Residues count along the entry.
UniProt P23945, 18-695 limits assumed: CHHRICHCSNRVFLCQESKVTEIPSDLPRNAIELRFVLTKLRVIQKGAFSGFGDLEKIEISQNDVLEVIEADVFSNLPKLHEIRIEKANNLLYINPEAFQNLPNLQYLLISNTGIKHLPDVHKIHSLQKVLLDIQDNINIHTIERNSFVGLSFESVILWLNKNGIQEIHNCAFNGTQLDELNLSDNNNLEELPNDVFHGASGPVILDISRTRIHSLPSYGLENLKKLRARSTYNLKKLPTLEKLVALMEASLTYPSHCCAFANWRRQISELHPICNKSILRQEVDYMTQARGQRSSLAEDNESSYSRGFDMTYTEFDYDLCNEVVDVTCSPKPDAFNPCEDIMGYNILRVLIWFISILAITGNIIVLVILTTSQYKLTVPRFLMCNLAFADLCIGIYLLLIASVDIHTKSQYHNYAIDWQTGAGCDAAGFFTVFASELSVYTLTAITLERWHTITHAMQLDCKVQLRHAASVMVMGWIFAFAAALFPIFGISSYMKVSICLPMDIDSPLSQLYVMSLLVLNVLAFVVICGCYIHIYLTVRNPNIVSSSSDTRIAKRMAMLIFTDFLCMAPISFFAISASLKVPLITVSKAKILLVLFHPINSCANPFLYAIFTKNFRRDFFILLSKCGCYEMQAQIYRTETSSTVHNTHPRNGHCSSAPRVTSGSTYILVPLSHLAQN

Molecular target: FSH receptor (Homo sapiens, UniProt P23945)
Test: FSH assay: cAMP response element luciferase reporter in CHO cells expressing recombinant FSH receptor
Details: read-out: ED50; agonist activity; CHO cells stably transfected with recombinant FSH receptor; luciferase luminescence; log-dose-response curves; incubation 37° C. for 3 hrs 30 min
Method: Compounds of the invention were tested in the following assay.
All compounds of the invention were stored in 96-well deepwell plates in DMSO at a nominal concentration of 10 μM. Compounds of the invention were screened for agonist activity at the FSH receptor using the recombinant FSH receptor stably transfected and expressed in Chinese Hamster Ovary Cells (CHO cells) essentially as described in the work by Kelton, et al. Molecular and Cellular Endocrinology, 1992, 89, 141-151). […] Thus an agonist at the FSH receptor increases cAMP in the cell which results in activation of the CREB (cAMP) response element binding protein). The substrate for the enzyme (Packard Instrument Company 800 Research Parkway, Meriden, Conn. 06450, USA) was added to the cells after appropriate incubation with the compounds or FSH and the amount of luciferase expressed was measured by quantitating the luminescence produced by the enzyme using a TopCount scintillation/luminescence counter running in single photon counting mode. A compound which acts as an agonist at the receptor should produce light from the treated cells in proportion to its concentration within the incubation. Luminescence should be saturable at high concentrations of the compound. […]

SMILES: CCCCCCCCN1CCN(S(=O)(=O)c2cccs2)[C@H](C(=O)Nc2ccc3c(c2)nc(-c2cccnc2)n3CC)C1
- EC50: 13 nM

The structures given here were assigned with low confidence; some may be wrong.
